Article PMC7413564, “Phase separation of Arabidopsis EMB1579 controls transcription, mRNA splicing, and development” (PLoS Biology, 2020)
No constants are given. Whether binding was seen depends on the method and setting. In cells and extracts the contact can be indirect. Some entries that bind do so weakly or less than the wild type. Tags and fused reporters may be left off the sequences shown.

T1: EMB1579-NLuc (Arabidopsis thaliana) (UniProt F4IS91)
T1 sequence: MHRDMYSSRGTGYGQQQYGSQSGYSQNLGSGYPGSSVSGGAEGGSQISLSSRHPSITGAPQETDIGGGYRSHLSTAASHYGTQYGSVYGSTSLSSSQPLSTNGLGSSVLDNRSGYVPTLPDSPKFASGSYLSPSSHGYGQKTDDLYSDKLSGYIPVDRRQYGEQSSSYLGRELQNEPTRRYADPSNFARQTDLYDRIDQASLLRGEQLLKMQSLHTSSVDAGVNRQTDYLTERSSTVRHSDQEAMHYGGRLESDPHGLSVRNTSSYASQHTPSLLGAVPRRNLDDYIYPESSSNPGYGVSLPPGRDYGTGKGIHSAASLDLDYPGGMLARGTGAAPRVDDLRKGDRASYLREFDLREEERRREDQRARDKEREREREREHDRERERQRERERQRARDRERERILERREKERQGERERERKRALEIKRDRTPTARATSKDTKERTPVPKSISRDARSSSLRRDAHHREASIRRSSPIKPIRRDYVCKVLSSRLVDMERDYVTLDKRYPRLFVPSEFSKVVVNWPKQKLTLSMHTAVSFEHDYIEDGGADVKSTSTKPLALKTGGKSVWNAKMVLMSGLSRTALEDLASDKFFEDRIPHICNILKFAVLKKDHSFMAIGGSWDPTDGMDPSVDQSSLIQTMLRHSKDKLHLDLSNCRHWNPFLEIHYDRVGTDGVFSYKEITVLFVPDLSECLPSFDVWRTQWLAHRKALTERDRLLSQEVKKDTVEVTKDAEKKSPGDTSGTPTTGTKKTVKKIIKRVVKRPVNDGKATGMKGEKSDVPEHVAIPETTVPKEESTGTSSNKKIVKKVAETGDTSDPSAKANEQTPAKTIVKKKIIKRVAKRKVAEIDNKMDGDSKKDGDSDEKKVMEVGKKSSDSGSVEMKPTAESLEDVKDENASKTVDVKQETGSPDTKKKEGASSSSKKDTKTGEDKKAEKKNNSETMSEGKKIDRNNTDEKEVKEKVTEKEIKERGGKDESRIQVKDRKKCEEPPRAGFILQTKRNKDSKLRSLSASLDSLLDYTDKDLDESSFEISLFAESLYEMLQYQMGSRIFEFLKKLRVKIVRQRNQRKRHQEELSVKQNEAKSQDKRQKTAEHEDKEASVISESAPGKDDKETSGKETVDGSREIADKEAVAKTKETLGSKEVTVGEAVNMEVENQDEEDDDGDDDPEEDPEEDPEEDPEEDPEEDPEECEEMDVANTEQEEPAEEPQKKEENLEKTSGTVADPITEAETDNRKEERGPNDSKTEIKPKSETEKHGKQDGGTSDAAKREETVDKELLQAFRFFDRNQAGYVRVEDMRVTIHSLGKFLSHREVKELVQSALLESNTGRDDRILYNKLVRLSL

B1: CLuc-RBP47C (protein, UniProt Q9SX79 1-432)
chain: MADVKIQSESESSDSHPVVDNQPPPPPPPPQQPAKEEENQPKTSPTPPPHWMRYPPTVIIPHQMMYAPPPFPPYHQYPNHHHLHHQSRGNKHQNAFNGENKTIWVGDLHHWMDEAYLNSSFASGDEREIVSVKVIRNKNNGLSEGYGFVEFESHDVADKVLREFNGTTMPNTDQPFRLNWASFSTGEKRLENNGPDLSIFVGDLSPDVSDNLLHETFSEKYPSVKAAKVVLDANTGRSKGYGFVRFGDENERTKAMTEMNGVKCSSRAMRIGPATPRKTNGYQQQGGYMPNGTLTRPEGDIMNTTIFVGGLDSSVTDEDLKQPFNEFGEIVSVKIPVGKGCGFVQFVNRPNAEEALEKLNGTVIGKQTVRLSWGRNPANKQPRDKYGNQWVDPYYGGQFYNGYGYMVPQPDPRMYPAAPYYPMYGGHQQQVS
B2: CLuc-BTF3 (protein, UniProt Q9SMW7 1-165)
chain: MNREKLMKMANTVRTGGKGTVRRKKKAVHKTNTTDDKRLQSTLKRIGVNSIPAIEEVNIFKDDVVIQFINPKVQASIAANTWVVSGSPQTKKLQDILPQIISQLGPDNMDNLKKLAEQFQKQASGEGNAASATIQEEDDDDVPELVGETFETAAEEKAPAAAASS
B3: CLuc-RAD23C (protein, UniProt Q84L31 1-419)
chain: MKIFVKTLKGTHFEIEVKPEDSVVDVKKNIESVQGADVYPAAKQMLIHQGKVLKDETTIEENKVAENSFIVIMMNKSKPASAAASSASAGTSQAKSIPPSTSQPSISPQTPASVSAPVAPAPTRPPPPAPTPTPAPVAATETVTTPIPEPVPATISSSTPAPDSAPVGSQGDVYGQAASNLAAGSNLESTIQQILDMGGGTWDRETVVLALRAAFNNPERAVEYLYTGIPEQAEVPPVARPPASAGQPANPPAQTQQPAAAPASGPNANPLDLFPQGLPNVGGNPGAGTLDFLRNSQQFQALRAMVQANPQVLQPMLQELGKQNPNLMRLIQDHQADFLRLINEPVEGGGESGNLLGQMAAGMPQPQAIQVTHEEREAIERLEAMGFERALVLEVFFACNKNEELAANYLLDHMHEFEE
B4: CLuc-RZ-1C (protein, UniProt Q8RWN5 1-310)
chain: MAAKEGSRIFVGGLSPEVTDRDLERAFSRFGDILDCQIMLERDTGRSRGFGFITFADRRAMDESIREMHGRDFGDRVISVNRAEPKLGRDDGESHGSRGGRDSGYSIAGKGSFGGGGGGGGRVGEDECFKCGRVGHWARDCPSAGGGRGGPVGGFSSRASAYGGSDGRVDRYADRDRYVDRERYIDDRYDGAARYGARDRFDSREAYIPRDRYASDRYAAPADRFAGGDRYSRGSDRYPPGSYDKARSFERDIAPSAGSDRYGGGRAGGPIRGGGEEGRGFRSRAGAPYERPSRSGGGGAYPSSSTFDRY
B5: CLuc-NRP1 (protein, UniProt Q9CA59 1-256)
chain: MVADKSKKSKIEEKGEEENLEQIDAELVLSIEKLQEIQDDLEKINEKASDEVLEVEQKYNVIRKPVYDKRNEVIQSIPGFWMTAFLSHPALGDLLTEEDQKIFKYLNSLEVEDAKDVKSGYSITFHFTSNPFFEDAKLTKTFTFLEEGTTKITATPIKWKEGKGLPNGVNHDDKKGNKRALPEESFFTWFTDAQHKEDAGDEIHDEVADIIKEDLWSNPLTYFNNDADEEDFDGDDDGDEEGEEDDDDEEEEDGEE
B6: CLuc-EBP1 (protein, UniProt Q96327 1-392)
chain: MSSDDERDEKELSLTSPEVVTKYKSAAEIVNKALQVVLAECKPKAKIVDICEKGDSFIKEQTASMYKNSKKKIERGVAFPTCISVNNTVGHFSPLASDESVLEDGDMVKIDMGCHIDGFIALVGHTHVLQEGPLSGRKADVIAAANTAADVALRLVRPGKKNTDVTEAIQKVAAAYDCKIVEGVLSHQLKQHVIDGNKVVLSVSSPETTVDEVEFEENEVYAIDIVASTGDGKPKLLDEKQTTIYKKDESVNYQLKMKASRFIISEIKQNFPRMPFTARSLEEKRARLGLVECVNHGHLQPYPVLYEKPGDFVAQIKFTVLLMPNGSDRITSHTLQELPKKTIEDPEIKGWLALGIKKKKGGGKKKKAQKAGEKGEASTEAEPMDASSNAQE
B7: CLuc-LIF2 (protein, UniProt Q9ASP6 1-495)
chain: MSDARDNDDRVDFEEGSYSEMEDEVEEEQVEEYEEEEEEDDDDDDVGNQNAEEREVEDYGDTKGGDMEDVQEEIAEDDDNHIDIETADDDEKPPSPIDDEDREKYSHLLSLPPHGSEVFIGGLPRDVGEEDLRDLCEEIGEIFEVRLMKDRDSGDSKGYAFVAFKTKDVAQKAIEELHSKEFKGKTIRCSLSETKNRLFIGNIPKNWTEDEFRKVIEDVGPGVENIELIKDPTNTTRNRGFAFVLYYNNACADYSRQKMIDSNFKLEGNAPTVTWADPKSSPEHSAAAAQVKALYVKNIPENTSTEQLKELFQRHGEVTKIVTPPGKGGKRDFGFVHYAERSSALKAVKDTERYEVNGQPLEVVLAKPQAERKHDPSSYSYGAAPTPAPFVHPTFGGFAAAPYGAMGAGLGIAGSFSQPMIYGRGAMPTGMQMVPMLLPDGRVGYVLQQPGMPMAAAPPQRPRRNDRNNGSSGGSGRDNSHEHDGNRGGRRYRPY
B8: CLuc-RBP45A (protein, UniProt Q9FPJ8 1-387)
chain: MQQPPSNAAGAGQIPSGQQHLWMMMQQQQQQQQMQLSAAPLGQHQYGIGSQNPGSASDVKSLWIGDLQQWMDENYIMSVFAQSGEATSAKVIRNKLTGQSEGYGFIEFVSHSVAERVLQTYNGAPMPSTEQTFRLNWAQAGAGEKRFQTEGPDHTIFVGDLAPEVTDYMLSDTFKNVYGSVKGAKVVLDRTTGRSKGYGFVRFADENEQMRAMTEMNGQYCSTRPMRIGPAANKNALPMQPAMYQNTQGANAGDNDPNNTTIFVGGLDANVTDDELKSIFGQFGELLHVKIPPGKRCGFVQYANKASAEHALSVLNGTQLGGQSIRLSWGRSPNKQSDQAQWNGGGYYGYPPQPQGGYGYAAQPPTQDPNAYYGGYTGYGNYQQQRQ
B9: CLuc-U1-70K (protein, UniProt Q42404 1-427)
chain: MGDSGDPFLRNPNAAVQARAKVQNRANVLQLKLMGQSHPTGLTNNLLKLFEPRPPLEYKPPPEKRKCPPYTGMAQFVSNFAEPGDPEYAPPKPEVELPSQKRERIHKLRLEKGVEKAAEDLKKYDPNNDPNATGDPYKTLFVSRLNYESSESKIKREFESYGPIKRVHLVTDQLTNKPKGYAFIEYMHTRDMKAAYKQADGQKIDGRRVLVDVERGRTVPNWRPRRLGGGLGTSRVGGGEEIVGEQQPQGRTSQSEEPSRPREEREKSREKGKERERSRELSHEQPRERSRDRPREDKHHRDRDQGGRDRDRDSRRDRDRTRDRGDRDRRDRDRGRDRTSRDHDRDRSRKKERDYEGGEYEHEGGGRSRERDAEYRGEPEETRGYYEDDQGDTDRYSHRYDKMEEDDFRYEREYKRSKRSESREYVR
B10: CLuc-MED8 (protein, UniProt Q4V3C1 1-524)
chain: METQPQQPPPPPVAEKLNPKLEKELNLESLKTRAVSLAKAIARILEDFDAYGRTNTTPKWQDILGQYSMVNLELFNIVEEVKRVSNAFVVLPKNVNAMNAAILPVMLSSKLLPEMETDDNAKREQLLQGVQSLPIPMQIERLKARMDMIAAACENAERVLADTRKAYGFGTRQGPSMLPTMDKGQAAKIQEQEKMLRDAVNDGKGTQLPPDQRQITTALPPHLADVLIINDAGKIALPGQSNNINNQGMMQVSGTQFVGRSAASPSGPNFDNTTSPLPYSNSPRATGMVNVPSPQHQIQQQQFQQQQQRSKLMQLPQHQQQQLLAQQQQQLRQSSMQGLGQSQIPALHDMHGQAQQKFQTSHGQHQMPYSQPMGAHQQFQARQLSGGHIQHSMSQGQLNPAMNRHLNQFSGGANSALFTSAQGSPSSQMIPNMSSMQSQTLVPRMQQFGVSGTNPQRSHSSQMLGDQMFNTSGMMQTQQTQIQQSQQQQQQQQQGGYGNMQTNQQSLQPNNMMQNAQQRHQNPQ
B11: CLuc-RAD51D (protein, UniProt Q9LQQ2 1-322)
chain: MAPLKHLEKENPIIDACFQDFCASHGILTIEDFLLHDLYELTAFSQRQTNADRLKEGITLILSLIERQCRPLVNGLKLLEDLHRNKHTLSTGDKETDSLLQGGFREGQLTELVGPSSSGKTQFCMQAAASVAENHLGRVLYLDTGNSFSARRIAQFICSSSDATLGQKVMSRILCHTVYDIYTLFDTLQDLEITLRLQMNVNESRLRLLVVDSISSLITPILGGSGSQGRALMVAIGYLLKKLAHEHSIAILVTNHTVGAGGEGGKTKPALGETWKSIPHVRLSLSRDHKNSNCTISILKHTSLPSGQAAKTLTRKENQQCP

Biological target: T1, EMB1579-NLuc (Arabidopsis thaliana)
Assay: split reporter; firefly split luciferase complementation imaging; NLuc and CLuc fusions co-infiltrated by Agrobacterium into N. benthamiana leaves, 60 hours, 1 mM D-luciferin

| binding | Binder |
| --- | --- |
| binds | B1 |
| binds | B2 |
| binds | B3 |
| binds | B4 |
| binds | B5 |
| binds | B6 |
| binds | B7 |
| binds | B8 |
| binds | B9 |
| binds | B10 |
| binds | B11 |
